These are yes or no findings as the source states them, for the method shown. Some results given as binding are weak or reduced against the parent protein; the word gives no strength. Where a sequence is shown, tags or fusion partners need not be part of it.
Molecular target: T1, Girdin 1192-1207 peptide, cellulose-bound (SPOT array) (human) (UniProt Q3V6T2)
T1 sequence (peptide): EVEHRDLEDRYNQLLK
Test: peptide or protein array; SPOT array, cellulose-bound peptides; GST-tagged MIT domain 100 µM in 5% skim milk in TBST overnight at 4 °C; detected with HRP-conjugated anti-GST antibody; both purified

Sequences of proteins named here, by UniProt entry; tags and fusion partners are left off. A change or cut given only in a name is not applied to a line headed by its entry.
UniProt Q3V6T2: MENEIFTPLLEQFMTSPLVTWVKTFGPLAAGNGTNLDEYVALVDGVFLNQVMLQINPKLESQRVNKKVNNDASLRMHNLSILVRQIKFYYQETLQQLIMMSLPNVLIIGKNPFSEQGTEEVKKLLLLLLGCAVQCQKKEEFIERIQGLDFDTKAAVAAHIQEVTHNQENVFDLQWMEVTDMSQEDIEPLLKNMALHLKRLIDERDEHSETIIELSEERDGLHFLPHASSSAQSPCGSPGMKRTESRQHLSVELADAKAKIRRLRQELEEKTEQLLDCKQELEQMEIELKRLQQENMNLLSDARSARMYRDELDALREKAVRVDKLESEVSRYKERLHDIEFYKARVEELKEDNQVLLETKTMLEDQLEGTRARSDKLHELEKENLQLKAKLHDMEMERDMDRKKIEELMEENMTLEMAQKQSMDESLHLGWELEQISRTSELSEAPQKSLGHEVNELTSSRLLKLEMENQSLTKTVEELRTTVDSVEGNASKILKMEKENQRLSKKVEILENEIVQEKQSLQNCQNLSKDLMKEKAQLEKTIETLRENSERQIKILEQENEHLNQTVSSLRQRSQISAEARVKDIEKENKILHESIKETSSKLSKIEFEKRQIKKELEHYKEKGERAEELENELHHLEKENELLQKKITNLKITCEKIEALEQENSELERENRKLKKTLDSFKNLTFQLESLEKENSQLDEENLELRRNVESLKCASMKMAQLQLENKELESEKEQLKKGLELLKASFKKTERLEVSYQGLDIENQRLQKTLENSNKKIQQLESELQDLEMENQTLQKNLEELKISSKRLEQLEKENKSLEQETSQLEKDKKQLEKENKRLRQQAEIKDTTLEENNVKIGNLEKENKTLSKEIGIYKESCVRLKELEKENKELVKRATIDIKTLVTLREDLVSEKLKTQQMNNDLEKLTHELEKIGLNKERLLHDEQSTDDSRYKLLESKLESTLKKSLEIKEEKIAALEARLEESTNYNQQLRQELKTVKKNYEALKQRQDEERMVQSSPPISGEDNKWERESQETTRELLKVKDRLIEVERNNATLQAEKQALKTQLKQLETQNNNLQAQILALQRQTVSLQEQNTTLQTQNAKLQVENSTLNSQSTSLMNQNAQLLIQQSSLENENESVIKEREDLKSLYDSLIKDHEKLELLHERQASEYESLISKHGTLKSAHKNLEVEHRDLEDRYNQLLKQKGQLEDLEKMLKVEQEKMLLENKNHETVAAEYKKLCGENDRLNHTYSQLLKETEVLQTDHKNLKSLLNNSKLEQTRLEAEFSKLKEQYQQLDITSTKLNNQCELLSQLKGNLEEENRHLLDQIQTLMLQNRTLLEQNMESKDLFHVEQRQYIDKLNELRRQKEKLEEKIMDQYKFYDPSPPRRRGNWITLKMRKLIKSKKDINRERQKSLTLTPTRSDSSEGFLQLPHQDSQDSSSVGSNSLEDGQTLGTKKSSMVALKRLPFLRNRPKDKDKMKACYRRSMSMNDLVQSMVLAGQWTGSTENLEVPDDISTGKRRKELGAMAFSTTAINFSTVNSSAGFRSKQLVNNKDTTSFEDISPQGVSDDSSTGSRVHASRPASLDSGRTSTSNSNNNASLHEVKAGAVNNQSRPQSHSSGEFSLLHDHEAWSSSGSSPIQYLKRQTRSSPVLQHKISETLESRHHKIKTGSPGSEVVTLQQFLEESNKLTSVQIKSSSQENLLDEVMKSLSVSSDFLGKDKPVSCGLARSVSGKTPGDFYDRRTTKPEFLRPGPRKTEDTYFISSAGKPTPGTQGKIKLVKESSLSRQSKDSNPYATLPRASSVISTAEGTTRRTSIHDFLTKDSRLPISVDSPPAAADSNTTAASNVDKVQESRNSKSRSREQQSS

B1: GST-tagged USP8 MIT domain (1-142) (domain or fragment, UniProt P40818 1-142)
chain: MPAVASVPKELYLSSSLKDLNKKTEVKPEKISTKSYVHSALKIFKTAEECRLDRDEERAYVLYMKYVTVYNLIKKRPDFKQQQDYFHSILGPGNIKKAVEEAERLSESLKLRYEEAEVRKKLEEKDRQEEAQRLQQKRQETG
Q: For B1, which binding is on record?
A: Its binding is “binds”.
